Reference: publication PMC8068134 (Toxins, 2021)

System: Paucibacter toxinivorans (2C20)
Conditions: Individually added cyanopeptide, 10 μg/mL, 7 days of incubation

CC[C@H](C)[C@@H]1NC(=O)[C@@H]2CSC(=N2)[C@@H]([C@@H](C)CC)NC(=O)c2csc(n2)CNC(=O)[C@H]2N=C1O[C@@H]2C [AC-A, aerucyclamide A]
Biodegradation over 7 days: completely degraded

CSCC[C@@H]1NC(=O)[C@@H]2CSC(=N2)[C@@H](Cc2ccccc2)NC(=O)c2csc(n2)CNC(=O)[C@H]2N=C1O[C@@H]2C [AC-D, aerucyclamide D]
Biodegradation over 7 days: completely degraded
